# Data: PubChem BioAssay AID292 (DTP/NCI, 2004)
# The list shows only some results of the screen, not a fair sample: it is rich in T/C values a quarter to a half above the control, in often repeated tests (any T/C) and in doses without a T/C. Further doses and runs are listed elsewhere. T/C gives the treated animals as a percentage of the vehicle group. Some entries give survivors of the animals treated and no T/C: the source holds a T/C of zero for them, seemingly a mark for toxic or unscored doses. Some doses without a T/C left all or most animals alive at the check, yet need not have been tolerated: survival well below the control is almost never listed, so the zero probably covers shortened survival too. Survivors were counted at the toxicity check, usually on the fifth day, unless a day is given; later deaths do not show. Schedules are NCI's codes, taken here to give the interval after Q, in days (D) or hours (H), and the number of doses after X. Some entries hold several experiments; the values are given in rising order. Where survival is the endpoint, the PubChem record calls one and a half times the control and up active, and a quarter to a half above the control has no call in these data; cut-offs in other NCI protocols can differ. Some T/C values are followed by the survivors on the day toxicity was checked, most often the fifth; where none is given, no animal had died by that day.
# Test system: B6C3F1 mice, ip Sarcoma M5076, median survival T/C
# Test: NCI In Vivo Anticancer Drug Screen. Data for tumor model Sarcoma M5076 (intraperitoneal) in B6C3F1 mice
# Conditions: T/C endpoint: median survival time, higher T/C = longer survival
# Procedure, shortened: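 Survival measured in treated (T) and vehicle control (C) mice with transplantable tumour; result given as T divided by C.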
# [1] = dose: 24.0 mg/kg/injection, schedule: Q04DX005 (ip), vehicle: Klucel (hydroxypropylcellulose) (HPC)
# [2] = dose: 100.0 mg/kg/injection, schedule: Q04DX004 (ip), vehicle: water
# [3] = dose: 200.0 mg/kg/injection, schedule: Q04DX004 (ip), vehicle: water
# [4] = dose: 250.0 mg/kg/injection, schedule: Q04DX004 (ip), vehicle: saline with Tween-80
# [5] = dose: 800.0 mg/kg/injection, schedule: Q04DX004 (ip), vehicle: Klucel (hydroxypropylcellulose) (HPC)
# [6] = dose: 800.0 mg/kg/injection, schedule: Q04DX004 (ip), vehicle: saline with Tween-80
# [7] = dose: 800.0 mg/kg/injection, schedule: Q04DX004 (ip), vehicle: saline
# [8] = dose: 400.0 mg/kg/injection, schedule: Q04DX004 (ip), vehicle: suspension in saline
structure (smiles),measurement,setting,value
CC1CCC(NC(=O)N(CCCl)N=O)CC1 (stereo unspecified),T/C,"dose: 1.5 mg/kg/injection, schedule: Q04DX004 (ip), vehicle: Klucel (hydroxypropylcellulose) (HPC)",128 and 143 % of control
same,T/C,"dose: 3.0 mg/kg/injection, schedule: Q04DX004 (ip), vehicle: Klucel (hydroxypropylcellulose) (HPC), evaluated on day 60",145 and 158 % of control
same,T/C,"dose: 3.0 mg/kg/injection, schedule: Q04DX004 (ip), vehicle: Klucel (hydroxypropylcellulose) (HPC), evaluated on day 75","113, 127, 137, 147, 165 [9 of 10 alive on day 14], 185 % of control"
same,T/C,"dose: 3.0 mg/kg/injection, schedule: Q04DX005 (ip), vehicle: Klucel (hydroxypropylcellulose) (HPC)","133, 139, 168, 214 % of control"
same,T/C,"dose: 6.0 mg/kg/injection, schedule: Q04DX004 (ip), vehicle: Klucel (hydroxypropylcellulose) (HPC), evaluated on day 60","194, 234, 241 % of control"
same,T/C,"dose: 6.0 mg/kg/injection, schedule: Q04DX004 (ip), vehicle: Klucel (hydroxypropylcellulose) (HPC), evaluated on day 75","131, 152, 190, 205, 221, 278 % of control"
same,T/C,"dose: 6.0 mg/kg/injection, schedule: Q04DX005 (ip), vehicle: Klucel (hydroxypropylcellulose) (HPC)","147, 183, 188, 268 % of control"
same,T/C,"dose: 12.0 mg/kg/injection, schedule: Q04DX004 (ip), vehicle: Klucel (hydroxypropylcellulose) (HPC), evaluated on day 60","217, 234, 254 % of control"
same,T/C,"dose: 12.0 mg/kg/injection, schedule: Q04DX004 (ip), vehicle: Klucel (hydroxypropylcellulose) (HPC), evaluated on day 75","162, 197, 221, 269, 303, 353 % of control"
same,T/C,"dose: 12.0 mg/kg/injection, schedule: Q04DX005 (ip), vehicle: Klucel (hydroxypropylcellulose) (HPC)","221, 268, 269, 353 % of control"
same,T/C,"dose: 24.0 mg/kg/injection, schedule: Q01DX004 (ip), vehicle: Klucel (hydroxypropylcellulose) (HPC)",141 % of control
same,T/C,"dose: 24.0 mg/kg/injection, schedule: Q04DX004 (ip), vehicle: Klucel (hydroxypropylcellulose) (HPC), evaluated on day 60","234, 241 [9 of 10 alive on day 14], 254 % of control"
same,T/C,"dose: 24.0 mg/kg/injection, schedule: Q04DX004 (ip), vehicle: Klucel (hydroxypropylcellulose) (HPC), evaluated on day 75","87, 221, 303, 315, 339, 353 % of control"
same,T/C,[1],221 and 353 % of control
same,survivor count,[1],9 of 10 on day 9 and 10 of 10 on day 9
same,survivor count,"dose: 48.0 mg/kg/injection, schedule: Q04DX004 (ip), vehicle: Klucel (hydroxypropylcellulose) (HPC)",5 of 10 on day 14
CC(=O)OCc1cc(=O)n(C)c2c3c4c(cc12)c(C)cc(=O)n4CO3,survivor count,"dose: 160.0 mg/kg/injection, schedule: Q04DX004 (ip), vehicle: Klucel (hydroxypropylcellulose) (HPC)",5 of 10 on day 14
O=NNc1cccnc1,survivor count,[2],1 of 10 on day 14
same,survivor count,[3],0 of 10 on day 14
O=CC(S)CO (stereo unspecified),T/C,"dose: 100.0 mg/kg/injection, schedule: Q04DX004 (ip), vehicle: suspension in saline",132 % of control
BrC[P+](CBr)(CBr)CBr,T/C,"dose: 62.5 mg/kg/injection, schedule: Q04DX004 (ip), vehicle: saline with Tween-80",125 and 136 % of control
same,survivor count,"dose: 125.0 mg/kg/injection, schedule: Q04DX004 (ip), vehicle: saline with Tween-80",3 of 10 on day 14
same,survivor count,[4],0 of 10 on day 14 and 3 of 10 on day 14
Nc1nc2c(ncn2C2CC3[O][Sn]([c]4ccccc4)([c]4ccccc4)[O]CC3O2)c(=O)[nH]1 (stereo unspecified),survivor count,"dose: 400.0 mg/kg/injection, schedule: Q04DX004 (ip), vehicle: distilled water + Tween-80",2 of 10 on day 14
O=C1C2C3C=CC(C2C(=O)N1CO)C1C2C(=O)N(CO)C(=O)C2C31 (stereo unspecified),survivor count,[2],5 of 10 on day 14
same,survivor count,[3],1 of 10 on day 14
CCOc1ccc(N2C(=O)C(=O)C(C(C)=O)C2=O)cc1 (stereo unspecified),survivor count,[5],3 of 10 on day 14
CCC/C=C/C=C/C(=O)OC1/C(=C/C(=O)OC)CC2CC(C(C)O)OC(=O)CC(O)CC3CC(OC(C)=O)C(C)(C)C(O)(CC4C/C(=C/C(=O)OC)CC(/C=C/C(C)(C)C1(O)O2)O4)O3 (stereo unspecified),T/C,"dose: 160.0 micrograms/kg/injection, schedule: Q01DX009 (ip), vehicle: saline",126 % of control
CN1C(=O)C(=O)N(Cc2ccc(CN3C(=O)C(=O)N(C)C3=O)cc2)C1=O,survivor count,[5],8 of 10 on day 14
O=CC(CO)CC(C=O)n1cnc2c(=O)[nH]cnc21 (stereo unspecified),T/C,"dose: 150.0 mg/kg/injection, schedule: Q04DX004 (ip), vehicle: saline",130 % of control
same,survivor count,"dose: 600.0 mg/kg/injection, schedule: Q04DX004 (ip), vehicle: saline",5 of 10 on day 14
CN=C(NC)c1ccc(NC(=O)/C=C\c2ccc(/C=C/C(=O)Nc3ccc(C(=NC)NC)cc3)cc2)cc1,T/C,"dose: 6.25 mg/kg/injection, schedule: Q04DX004 (ip), vehicle: Klucel (hydroxypropylcellulose) (HPC)",135 % of control
same,T/C,"dose: 12.5 mg/kg/injection, schedule: Q04DX004 (ip), vehicle: Klucel (hydroxypropylcellulose) (HPC)",131 % of control [9 of 10 alive on day 14]
same,survivor count,"dose: 25.0 mg/kg/injection, schedule: Q04DX004 (ip), vehicle: Klucel (hydroxypropylcellulose) (HPC)",0 of 10 on day 14
same,survivor count,"dose: 28.95 mg/kg/injection, schedule: Q04DX004 (ip), vehicle: Klucel (hydroxypropylcellulose) (HPC)",9 of 10 on day 14
same,survivor count,"dose: 50.0 mg/kg/injection, schedule: Q04DX004 (ip), vehicle: Klucel (hydroxypropylcellulose) (HPC)",0 of 10 on day 14
C=CCNC(=O)c1ccccc1SC(C)=O,survivor count,[6],3 of 10 on day 9
COc1ccc(-n2cc[n+](C)c2/C=N\O)cc1,survivor count,[4],0 of 10 on day 14
same,survivor count,"dose: 500.0 mg/kg/injection, schedule: Q04DX004 (ip), vehicle: saline with Tween-80",0 of 10 on day 14
Nc1ccc2c(c1)C1(CCC2)NC(=O)NC1=O (stereo unspecified),survivor count,[6],9 of 10 on day 14
N[C@@H](C[C@H]1CCC(=O)[C@@H]2O[C@H]12)C(=O)O,T/C,[7],139 % of control
O=S(=O)(O)O,survivor count,"dose: 67.0 mg/kg/injection, schedule: Q01DX009 (ip), vehicle: water",10 of 10
same,survivor count,"dose: 100.0 mg/kg/injection, schedule: Q01DX009 (ip), vehicle: water",10 of 10
COc1ccc2c(c1)-c1nn(CCCN(C)C)c3ccc([N+](=O)[O-])c(c13)N2,T/C,"dose: 6.25 mg/kg/injection, schedule: Q04DX004 (ip), vehicle: water",135 % of control
same,T/C,"dose: 12.5 mg/kg/injection, schedule: Q04DX004 (ip), vehicle: water",135 % of control
same,T/C,"dose: 25.0 mg/kg/injection, schedule: Q04DX004 (ip), vehicle: water",143 and 147 % of control
same,survivor count,[2],0 of 10 on day 14
N=C(N)SCc1cccc2c(=O)cc(-c3ccccc3)oc12,T/C,[8],134 % of control
same,survivor count,[8],4 of 10 on day 14 and 6 of 10 on day 14
same,survivor count,"dose: 666.67 mg/kg/injection, schedule: Q04DX004 (ip), vehicle: suspension in saline",0 of 10 on day 14
same,survivor count,[7],3 of 9 on day 14
same,survivor count,"dose: 800.0 mg/kg/injection, schedule: Q04DX004 (ip), vehicle: suspension in saline",5 of 10 on day 14
same,survivor count,"dose: 1111.11 mg/kg/injection, schedule: Q04DX004 (ip), vehicle: suspension in saline",0 of 10 on day 14
C/C(=N\NC(=S)N1CCN(c2ccccn2)CC1)c1ccccn1,survivor count,"dose: 100.0 mg/kg/injection, schedule: Q04DX004 (ip), vehicle: Klucel (hydroxypropylcellulose) (HPC)",0 of 10 on day 14
same,survivor count,"dose: 200.0 mg/kg/injection, schedule: Q04DX004 (ip), vehicle: Klucel (hydroxypropylcellulose) (HPC)",0 of 10 on day 14
CN(C)c1cc2c(nn1)Nc1ccccc1S2,survivor count,"dose: 400.0 mg/kg/injection, schedule: Q04DX004 (ip), vehicle: saline with Tween-80",10 of 10 on day 14
